## Library screening results

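Viability assay of Plasmodium falciparum sporozoites; the read-out is not stated. The concentration is filed as 10 mM, unlikely as a test dose, so the dose is not known. Direction is inferred from retests: higher values go with lower viability. Strong results were mostly tested again. Size under these conditions: about 34,000 compounds, about 280 of them at 50% or above in at least one test.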

Each number is a percent effect as filed. How 0% and 100% were set is not recorded. Most values in the screen are low, and negative values occur. Compounds were drawn at random from those tested, without regard to their results. Two or more numbers in one place are separate tests of the same structure; such repeats can differ widely.

- O=C(O)C(F)(F)F.O=C(c1ccccc1)N1CCCC2(CCN2Cc2cccc(F)c2)C1 (stereo not given) : 4.203%
- CNc1cncc(C2CCCN2C(=O)CCn2ccnc2)n1 (stereo not given) : -9.841%
- Cc1nc(C)n(CC2CCCN(Cc3cn4c(C)cccc4n3)C2)n1 (stereo not given) : 3.943%
- Cc1nnc(C2CCN(c3ncccn3)CC2)o1 : 4.973%
- COc1ccc(OCc2nc(C(=O)N3C[C@H](O)[C@@H](N(C)C)C3)co2)cc1 : -12.02%
- Cc1ccccc1CSc1ncccc1C(=O)N(C)C : -25%
- Cc1cc(C)n(-c2ccc(N3CCC(O)CC3)nc2)n1 : -31.18% & 0.1095% & -30.22%
- COc1cc(C(=O)Nc2nc(C)no2)cc(OC)c1Br : 3.582%
- CC(C)(C)OC(=O)N1CCN(c2cccnc2)CC1C(=O)O (stereo not given) : -0.9591%
- Cc1nc(C)n(CC2CCCN(c3ccc(C#N)cn3)C2)n1 (stereo not given) : -2.866%
- COc1cc2nc(C)n(CC(=O)O)c(=O)c2cc1OC : 3.289%
- COCCN1CCC(CNC(=O)c2c[nH]c(=O)c(Cl)c2)CC1 : 5.439%
- Cc1nccn1[C@@H]1CC[C@@H](N(C)S(=O)(=O)c2ccccc2F)[C@H]1O : 10.33%
- CCOc1ccnc(N2CCN(C(=O)c3ccncc3)CC2)n1 : -13.91%
- COc1ccc(F)cc1CN1CCCC1Cn1nc(C)nc1C (stereo not given) : 5.402%
- Cc1nc(NC(=O)C2CCCN(C(=O)C3CC3)C2)sc1C (stereo not given) : 2.525%
- COCc1nc(CNC2CCCC(C)(C)C2)no1 (stereo not given) : -3.846%
- Cc1cc(CN(C)Cc2cc3c(cc2OC(F)F)OCO3)on1 : 18.79% & -8.997% & 20.34%
- Cc1nc(C(=O)N2CCCC2c2noc(C)n2)c[nH]1 (stereo not given) : 1.446%
- c1ccc(-c2nnc3n2CCN(Cc2ccc4c(c2)OCCO4)C3)cc1 : 8.847%
- O=C(C1CCOC1)N1CCC2(CCNCC2)C1 (stereo not given) : 16.73%
- Cc1nc(CN(C)C2CCCN(c3cccnn3)C2)nc2ccccc12 (stereo not given) : -2.342%
- Cc1occc1C(=O)N1CCCN(Cc2nccn2C)CC1 : 6.733%
- Cc1n[nH]c(C)c1NC(=O)CCc1cccc(C2CCCN(C)C2)n1 (stereo not given) : -1.199%
- O=C(c1ccsc1)N1CC(C(=O)N2CCOCC2)C2(CCOCC2)C1 (stereo not given) : 1.899%
- Cc1cc(C)n(C2CCCN(C(=O)C3=NN(C)C(=O)CC3)C2)n1 (stereo not given) : 12.48%
- Cc1ccc(CN(Cc2nc3c(cnn3C)c(=O)[nH]2)C(C)C)s1 : -4.982%
- Cc1cc(NCC2CCCCC2)n2ncnc2n1 : 13%
- Cc1ccc2c(n1)N(CCn1cccn1)CCN(C1CCOCC1)C2.O=C(O)C(F)(F)F.O=C(O)C(F)(F)F : 15.35%
- CCN(CC)C1COc2c(cc(Br)c(C)c2C)C1=O (stereo not given) : 9.474%
- Cc1cnc(Nc2cccc(C3CCCN3C(=O)CO)n2)s1 (stereo not given) : 5.827%
- COc1cc(F)c(S(=O)(=O)N2c3ncccc3NC(=O)C2C)cc1OC (stereo not given) : 2.612%
- O=C(O)C(F)(F)F.O=C(O)C(F)(F)F.[H][C@@]12COC[C@H](C(=O)NCc3ccco3)[C@]1([H])CN(Cc1ccccn1)C2 : -27.3% & -20.56% & -2.663%
- CCOc1cccc(C(=O)N2CCCn3nc(CCC(=O)O)cc3C2)c1 : 0.08772%
- Clc1ccc(CN(CCN2CCOCC2)Cc2cccnc2)cc1Cl : 9.429%
- CCc1cnc(CN(C)C2CCN(CCS(C)(=O)=O)C2)o1 (stereo not given) : -2.912%
- CSC(C)C(=O)NCc1ccnc(N2CCN(C)CC2)c1 (stereo not given) : -0.0331%
- CCCNC(=O)c1cc(-c2cnc(N3CCCC3)nc2)cn1C : 7.646%
- O=C(CCCOc1ccc(F)cc1F)N1CCCC(n2cccn2)C1 (stereo not given) : 10.19%
- CS(=O)(=O)NCCCNC(=O)c1cccc(-n2cccc2)c1 : 10.94%

The last 4 entries again:

Compound,Percent Effect
CSC(C)C(=O)NCc1ccnc(N2CCN(C)CC2)c1 (stereo not given),-0.0331
CCCNC(=O)c1cc(-c2cnc(N3CCCC3)nc2)cn1C,7.646
O=C(CCCOc1ccc(F)cc1F)N1CCCC(n2cccn2)C1 (stereo not given),10.19
CS(=O)(=O)NCCCNC(=O)c1cccc(-n2cccc2)c1,10.94

Measurements from “University of Dundee, Small-Polar-MMV Screening Library” (2021), ChEMBL document CHEMBL3988442.